Test results taken from article PMC12607517.
These are yes or no findings as the source states them, for the method shown. In cells and extracts the contact can be indirect. Some results given as binding are weak or reduced against the parent protein; the word gives no strength. Where a sequence is shown, tags or fusion partners need not be part of it.

The chains behind the UniProt entries cited, without tags or fusion partners.
UniProt Q91VJ4: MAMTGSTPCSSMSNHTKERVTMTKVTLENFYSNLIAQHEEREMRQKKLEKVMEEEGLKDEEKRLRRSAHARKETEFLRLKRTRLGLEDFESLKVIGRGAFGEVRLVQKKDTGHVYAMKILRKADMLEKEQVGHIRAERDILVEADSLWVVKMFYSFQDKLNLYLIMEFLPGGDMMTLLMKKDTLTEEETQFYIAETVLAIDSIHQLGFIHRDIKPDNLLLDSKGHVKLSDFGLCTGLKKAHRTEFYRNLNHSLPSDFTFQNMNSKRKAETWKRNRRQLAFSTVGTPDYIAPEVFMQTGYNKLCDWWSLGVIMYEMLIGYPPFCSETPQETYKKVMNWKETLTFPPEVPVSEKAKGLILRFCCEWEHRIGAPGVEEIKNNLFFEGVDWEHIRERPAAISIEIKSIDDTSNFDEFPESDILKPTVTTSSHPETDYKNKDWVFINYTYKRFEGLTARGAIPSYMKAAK

T1: FLAG-MerTK (mouse) (UniProt Q60805)
T1 sequence: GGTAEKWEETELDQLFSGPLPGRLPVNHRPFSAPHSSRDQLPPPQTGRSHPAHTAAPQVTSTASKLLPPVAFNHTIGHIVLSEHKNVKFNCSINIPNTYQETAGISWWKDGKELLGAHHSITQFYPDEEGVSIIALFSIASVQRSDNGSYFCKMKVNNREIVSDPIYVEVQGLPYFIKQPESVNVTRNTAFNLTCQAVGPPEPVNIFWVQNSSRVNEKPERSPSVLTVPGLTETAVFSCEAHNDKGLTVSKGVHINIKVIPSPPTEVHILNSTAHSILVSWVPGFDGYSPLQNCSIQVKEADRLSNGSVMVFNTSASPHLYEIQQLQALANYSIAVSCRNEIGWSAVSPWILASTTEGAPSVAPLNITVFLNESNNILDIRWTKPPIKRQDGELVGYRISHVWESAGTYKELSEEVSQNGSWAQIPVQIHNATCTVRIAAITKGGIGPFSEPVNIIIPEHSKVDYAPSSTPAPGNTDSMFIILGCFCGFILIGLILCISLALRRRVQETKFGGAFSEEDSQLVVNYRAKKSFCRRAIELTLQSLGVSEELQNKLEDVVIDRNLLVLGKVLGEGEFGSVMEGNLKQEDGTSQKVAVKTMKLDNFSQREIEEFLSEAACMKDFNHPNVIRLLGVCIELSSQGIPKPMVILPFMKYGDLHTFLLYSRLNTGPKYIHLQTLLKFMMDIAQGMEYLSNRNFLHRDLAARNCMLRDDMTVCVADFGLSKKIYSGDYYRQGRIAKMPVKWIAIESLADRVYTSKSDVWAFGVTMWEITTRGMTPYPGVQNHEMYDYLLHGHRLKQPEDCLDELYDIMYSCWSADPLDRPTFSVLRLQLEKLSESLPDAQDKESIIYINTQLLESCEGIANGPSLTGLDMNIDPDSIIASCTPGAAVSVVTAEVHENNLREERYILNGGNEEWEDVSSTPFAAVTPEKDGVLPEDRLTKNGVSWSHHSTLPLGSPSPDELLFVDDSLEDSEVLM


How the values were obtained:
FLAG-MerTK (mouse) = target: T1, FLAG-MerTK (mouse); assay: co-IP; HEK293T transfected for 48 h; RIPA lysates incubated with anti-FLAG M2 beads at 4 °C for 2 h, washed three times with RIPA; immunoblot with anti-FLAG, anti-Myc, anti-STK38 or anti-MerTK
FLAG-STK38 (mouse) = FLAG-STK38 (mouse) (UniProt Q91VJ4); assay: as above

Molecule	binding (FLAG-MerTK (mouse))	binding (FLAG-STK38 (mouse))
Myc-STK38 (from UniProt Q91VJ4 1-465) (enzyme)	binds	–
Myc-tagged full length MerTK (receptor, UniProt Q60805 19-994) GGTAEKWEETELDQLFSGPLPGRLPVNHRPFSAPHSSRDQLPPPQTGRSHPAHTAAPQVTSTASKLLPPVAFNHTIGHIVLSEHKNVKFNCSINIPNTYQETAGISWWKDGKELLGAHHSITQFYPDEEGVSIIALFSIASVQRSDNGSYFCKMKVNNREIVSDPIYVEVQGLPYFIKQPESVNVTRNTAFNLTCQAVGPPEPVNIFWVQNSSRVNEKPERSPSVLTVPGLTETAVFSCEAHNDKGLTVSKGVHINIKVIPSPPTEVHILNSTAHSILVSWVPGFDGYSPLQNCSIQVKEADRLSNGSVMVFNTSASPHLYEIQQLQALANYSIAVSCRNEIGWSAVSPWILASTTEGAPSVAPLNITVFLNESNNILDIRWTKPPIKRQDGELVGYRISHVWESAGTYKELSEEVSQNGSWAQIPVQIHNATCTVRIAAITKGGIGPFSEPVNIIIPEHSKVDYAPSSTPAPGNTDSMFIILGCFCGFILIGLILCISLALRRRVQETKFGGAFSEEDSQLVVNYRAKKSFCRRAIELTLQSLGVSEELQNKLEDVVIDRNLLVLGKVLGEGEFGSVMEGNLKQEDGTSQKVAVKTMKLDNFSQREIEEFLSEAACMKDFNHPNVIRLLGVCIELSSQGIPKPMVILPFMKYGDLHTFLLYSRLNTGPKYIHLQTLLKFMMDIAQGMEYLSNRNFLHRDLAARNCMLRDDMTVCVADFGLSKKIYSGDYYRQGRIAKMPVKWIAIESLADRVYTSKSDVWAFGVTMWEITTRGMTPYPGVQNHEMYDYLLHGHRLKQPEDCLDELYDIMYSCWSADPLDRPTFSVLRLQLEKLSESLPDAQDKESIIYINTQLLESCEGIANGPSLTGLDMNIDPDSIIASCTPGAAVSVVTAEVHENNLREERYILNGGNEEWEDVSSTPFAAVTPEKDGVLPEDRLTKNGVSWSHHSTLPLGSPSPDELLFVDDSLEDSEVLM	–	binds

Continued, values first:

binding (FLAG-MerTK (mouse))	binding (FLAG-STK38 (mouse))	Molecule
–	binds	Myc-tagged intracellular domain of MerTK (domain or fragment, UniProt Q60805 521-994) RRRVQETKFGGAFSEEDSQLVVNYRAKKSFCRRAIELTLQSLGVSEELQNKLEDVVIDRNLLVLGKVLGEGEFGSVMEGNLKQEDGTSQKVAVKTMKLDNFSQREIEEFLSEAACMKDFNHPNVIRLLGVCIELSSQGIPKPMVILPFMKYGDLHTFLLYSRLNTGPKYIHLQTLLKFMMDIAQGMEYLSNRNFLHRDLAARNCMLRDDMTVCVADFGLSKKIYSGDYYRQGRIAKMPVKWIAIESLADRVYTSKSDVWAFGVTMWEITTRGMTPYPGVQNHEMYDYLLHGHRLKQPEDCLDELYDIMYSCWSADPLDRPTFSVLRLQLEKLSESLPDAQDKESIIYINTQLLESCEGIANGPSLTGLDMNIDPDSIIASCTPGAAVSVVTAEVHENNLREERYILNGGNEEWEDVSSTPFAAVTPEKDGVLPEDRLTKNGVSWSHHSTLPLGSPSPDELLFVDDSLEDSEVLM
–	binds	endogenous MerTK (HEK293T) (receptor, UniProt Q12866 21-999) AITEAREEAKPYPLFPGPFPGSLQTDHTPLLSLPHASGYQPALMFSPTQPGRPHTGNVAIPQVTSVESKPLPPLAFKHTVGHIILSEHKGVKFNCSISVPNIYQDTTISWWKDGKELLGAHHAITQFYPDDEVTAIIASFSITSVQRSDNGSYICKMKINNEEIVSDPIYIEVQGLPHFTKQPESMNVTRNTAFNLTCQAVGPPEPVNIFWVQNSSRVNEQPEKSPSVLTVPGLTEMAVFSCEAHNDKGLTVSKGVQINIKAIPSPPTEVSIRNSTAHSILISWVPGFDGYSPFRNCSIQVKEADPLSNGSVMIFNTSALPHLYQIKQLQALANYSIGVSCMNEIGWSAVSPWILASTTEGAPSVAPLNVTVFLNESSDNVDIRWMKPPTKQQDGELVGYRISHVWQSAGISKELLEEVGQNGSRARISVQVHNATCTVRIAAVTRGGVGPFSDPVKIFIPAHGWVDYAPSSTPAPGNADPVLIIFGCFCGFILIGLILYISLAIRKRVQETKFGNAFTEEDSELVVNYIAKKSFCRRAIELTLHSLGVSEELQNKLEDVVIDRNLLILGKILGEGEFGSVMEGNLKQEDGTSLKVAVKTMKLDNSSQREIEEFLSEAACMKDFSHPNVIRLLGVCIEMSSQGIPKPMVILPFMKYGDLHTYLLYSRLETGPKHIPLQTLLKFMVDIALGMEYLSNRNFLHRDLAARNCMLRDDMTVCVADFGLSKKIYSGDYYRQGRIAKMPVKWIAIESLADRVYTSKSDVWAFGVTMWEIATRGMTPYPGVQNHEMYDYLLHGHRLKQPEDCLDELYEIMYSCWRTDPLDRPTFSVLRLQLEKLLESLPDVRNQADVIYVNTQLLESSEGLAQGSTLAPLDLNIDPDSIIASCTPRAAISVVTAEVHDSKPHEGRYILNGGSEEWEDLTSAPSAAVTAEKNSVLPGERLVRNGVSWSHSSMLPLGSSLPDELLFADDSSEGSEVLM
